Measured values from article PMC6713327.

T1: FANCA (human (endogenous in 293FT and EndoC-βH3)) (UniProt O15360)
T1 sequence: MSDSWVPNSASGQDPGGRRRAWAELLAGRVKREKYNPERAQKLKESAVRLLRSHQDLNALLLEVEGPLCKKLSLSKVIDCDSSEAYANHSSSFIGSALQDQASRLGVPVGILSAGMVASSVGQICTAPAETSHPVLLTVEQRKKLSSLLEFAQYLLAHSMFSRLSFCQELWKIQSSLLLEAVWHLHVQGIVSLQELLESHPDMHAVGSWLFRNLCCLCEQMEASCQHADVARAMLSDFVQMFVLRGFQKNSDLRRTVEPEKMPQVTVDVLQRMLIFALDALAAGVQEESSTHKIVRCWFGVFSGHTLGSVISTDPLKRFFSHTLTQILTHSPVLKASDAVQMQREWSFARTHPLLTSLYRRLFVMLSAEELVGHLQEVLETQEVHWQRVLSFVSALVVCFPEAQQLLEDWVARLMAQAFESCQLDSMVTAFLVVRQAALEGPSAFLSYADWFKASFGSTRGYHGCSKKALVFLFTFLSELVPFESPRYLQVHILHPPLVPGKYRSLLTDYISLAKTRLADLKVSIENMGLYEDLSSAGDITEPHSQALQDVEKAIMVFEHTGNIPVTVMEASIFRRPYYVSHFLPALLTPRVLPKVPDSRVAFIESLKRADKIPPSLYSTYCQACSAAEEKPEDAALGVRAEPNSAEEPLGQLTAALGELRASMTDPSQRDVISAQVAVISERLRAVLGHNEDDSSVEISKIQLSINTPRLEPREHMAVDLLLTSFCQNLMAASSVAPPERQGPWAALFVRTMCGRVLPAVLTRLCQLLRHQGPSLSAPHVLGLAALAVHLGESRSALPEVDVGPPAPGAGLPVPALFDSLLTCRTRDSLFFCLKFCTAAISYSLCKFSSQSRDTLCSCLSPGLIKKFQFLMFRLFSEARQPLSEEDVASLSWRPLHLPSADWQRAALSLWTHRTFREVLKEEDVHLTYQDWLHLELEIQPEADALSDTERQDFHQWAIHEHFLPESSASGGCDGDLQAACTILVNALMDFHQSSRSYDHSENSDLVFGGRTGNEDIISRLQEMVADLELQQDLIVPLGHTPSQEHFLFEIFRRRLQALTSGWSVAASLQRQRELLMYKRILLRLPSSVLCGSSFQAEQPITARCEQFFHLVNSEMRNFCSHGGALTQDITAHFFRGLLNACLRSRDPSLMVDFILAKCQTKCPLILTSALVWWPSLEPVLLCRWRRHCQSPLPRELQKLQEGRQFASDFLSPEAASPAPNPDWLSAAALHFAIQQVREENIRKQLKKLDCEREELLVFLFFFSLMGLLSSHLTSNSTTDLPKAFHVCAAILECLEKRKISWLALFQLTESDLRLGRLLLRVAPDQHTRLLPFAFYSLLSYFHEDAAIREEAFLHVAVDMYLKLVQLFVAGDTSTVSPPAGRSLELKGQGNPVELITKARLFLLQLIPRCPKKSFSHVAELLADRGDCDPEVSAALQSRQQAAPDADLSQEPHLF


Tests used:
[1] = biological target: T1, FANCA (human (endogenous in 293FT and EndoC-βH3)); experiment: affinity purification with mass spectrometry; endogenous FANCA precipitated from lysate of EndoC-βH3 cells cultured in 5 mM or 20 mM glucose, anti-FANCA antibody coupled to Dynabeads, 2 h at 4°C; LC-MS/MS, SAINT (BFDR ≤ 0.05, SAINT score = 1.0); biological duplicates
[2] = biological target: T1, FANCA (human (endogenous in 293FT and EndoC-βH3)); experiment: affinity purification with mass spectrometry; endogenous FANCA precipitated from 293FT lysate (NETN buffer) with anti-FANCA antibody coupled to Dynabeads, 2 h at 4°C; rabbit IgG as negative control; LC-MS/MS, SAINT (BFDR ≤ 0.05, SAINT score ≥ 0.8); biological duplicates

binding [1]	binding [2]	Binder
binds		SEC24B (protein, UniProt O95487 1-1268) MSAPAGSSHPAASARIPPKFGGAAVSGAAAPAGPGAGPAPHQQNGPAQNQMQVPSGYGLHHQNYIAPSGHYSQGPGKMTSLPLDTQCGDYYSALYTVPTQNVTPNTVNQQPGAQQLYSRGPPAPHIVGSTLGSFQGAASSASHLHTSASQPYSSFVNHYNSPAMYSASSSVASQGFPSTCGHYAMSTVSNAAYPSVSYPSLPAGDTYGQMFTSQNAPTVRPVKDNSFSGQNTAISHPSPLPPLPSQQHHQQQSLSGYSTLTWSSPGLPSTQDNLIRNHTGSLAVANNNPTITVADSLSCPVMQNVQPPKSSPVVSTVLSGSSGSSSTRTPPTANHPVEPVTSVTQPSELLQQKGVQYGEYVNNQASSAPTPLSSTSDDEEEEEEDEEAGVDSSSTTSSASPMPNSYDALEGGSYPDMLSSSASSPAPDPAPEPDPASAPAPASAPAPVVPQPSKMAKPFGYGYPTLQPGYQNATAPLISGVQPSNPVYSGFQQYPQQYPGVNQLSSSIGGLSLQSSPQPESLRPVNLTQERNILPMTPVWAPVPNLNADLKKLNCSPDSFRCTLTNIPQTQALLNKAKLPLGLLLHPFRDLTQLPVITSNTIVRCRSCRTYINPFVSFIDQRRWKCNLCYRVNDVPEEFMYNPLTRSYGEPHKRPEVQNSTVEFIASSDYMLRPPQPAVYLFVLDVSHNAVEAGYLTILCQSLLENLDKLPGDSRTRIGFMTFDSTIHFYNLQEGLSQPQMLIVSDIDDVFLPTPDSLLVNLYESKELIKDLLNALPNMFTNTRETHSALGPALQAAFKLMSPTGGRVSVFQTQLPSLGAGLLQSREDPNQRSSTKVVQHLGPATDFYKKLALDCSGQQTAVDLFLLSSQYSDLASLACMSKYSAGCIYYYPSFHYTHNPSQAEKLQKDLKRYLTRKIGFEAVMRIRCTKGLSMHTFHGNFFVRSTDLLSLANINPDAGFAVQLSIEESLTDTSLVCFQTALLYTSSKGERRIRVHTLCLPVVSSLADVYAGVDVQAAICLLANMAVDRSVSSSLSDARDALVNAVVDSLSAYGSTVSNLQHSALMAPSSLKLFPLYVLALLKQKAFRTGTSTRLDDRVYAMCQIKSQPLVHLMKMIHPNLYRIDRLTDEGAVHVNDRIVPQPPLQKLSAEKLTREGAFLMDCGSVFYIWVGKGCDNNFIEDVLGYTNFASIPQKMTHLPELDTLSSERARSFITWLRDSRPLSPILHIVKDESPAKAEFFQHLIEDRTEAAFSYYEFLLHVQQQICK
binds		ATG4B (protein, UniProt Q9Y4P1 1-393) MDAATLTYDTLRFAEFEDFPETSEPVWILGRKYSIFTEKDEILSDVASRLWFTYRKNFPAIGGTGPTSDTGWGCMLRCGQMIFAQALVCRHLGRDWRWTQRKRQPDSYFSVLNAFIDRKDSYYSIHQIAQMGVGEGKSIGQWYGPNTVAQVLKKLAVFDTWSSLAVHIAMDNTVVMEEIRRLCRTSVPCAGATAFPADSDRHCNGFPAGAEVTNRPSPWRPLVLLIPLRLGLTDINEAYVETLKHCFMMPQSLGVIGGKPNSAHYFIGYVGEELIYLDPHTTQPAVEPTDGCFIPDESFHCQHPPCRMSIAELDPSIAVGFFCKTEDDFNDWCQQVKKLSLLGGALPMFELVELQPSHLACPDVLNLSLDSSDVERLERFFDSEDEDFEILSL
	binds	RAD17 (protein, UniProt O75943 1-681) MSKTFLRPKVSSTKVTDWVDPSFDDFLECSGVSTITATSLGVNNSSHRRKNGPSTLESSRFPARKRGNLSSLEQIYGLENSKEYLSENEPWVDKYKPETQHELAVHKKKIEEVETWLKAQVLERQPKQGGSILLITGPPGCGKTTTLKILSKEHGIQVQEWINPVLPDFQKDDFKGMFNTESSFHMFPYQSQIAVFKEFLLRATKYNKLQMLGDDLRTDKKIILVEDLPNQFYRDSHTLHEVLRKYVRIGRCPLIFIISDSLSGDNNQRLLFPKEIQEECSISNISFNPVAPTIMMKFLNRIVTIEANKNGGKITVPDKTSLELLCQGCSGDIRSAINSLQFSSSKGENNLRPRKKGMSLKSDAVLSKSKRRKKPDRVFENQEVQAIGGKDVSLFLFRALGKILYCKRASLTELDSPRLPSHLSEYERDTLLVEPEEVVEMSHMPGDLFNLYLHQNYIDFFMEIDDIVRASEFLSFADILSGDWNTRSLLREYSTSIATRGVMHSNKARGYAHCQGGGSSFRPLHKPQWFLINKKYRENCLAAKALFPDFCLPALCLQTQLLPYLALLTIPMRNQAQISFIQDIGRLPLKRHFGRLKMEALTDREHGMIDPDSGDEAQLNGGHSAEESLGEPTQATVPETWSLPLSQNSASELPASQPQPFSAQGDMEENIIIEDYESDGT
binds		ATG9A (protein, UniProt Q7Z3C6 1-839) MAQFDTEYQRLEASYSDSPPGEEDLLVHVAEGSKSPWHHIENLDLFFSRVYNLHQKNGFTCMLIGEIFELMQFLFVVAFTTFLVSCVDYDILFANKMVNHSLHPTEPVKVTLPDAFLPAQVCSARIQENGSLITILVIAGVFWIHRLIKFIYNICCYWEIHSFYLHALRIPMSALPYCTWQEVQARIVQTQKEHQICIHKRELTELDIYHRILRFQNYMVALVNKSLLPLRFRLPGLGEAVFFTRGLKYNFELILFWGPGSLFLNEWSLKAEYKRGGQRLELAQRLSNRILWIGIANFLLCPLILIWQILYAFFSYAEVLKREPGALGARCWSLYGRCYLRHFNELEHELQSRLNRGYKPASKYMNCFLSPLLTLLAKNGAFFAGSILAVLIALTIYDEDVLAVEHVLTTVTLLGVTVTVCRSFIPDQHMVFCPEQLLRVILAHIHYMPDHWQGNAHRSQTRDEFAQLFQYKAVFILEELLSPIVTPLILIFCLRPRALEIIDFFRNFTVEVVGVGDTCSFAQMDVRQHGHPQWLSAGQTEASVYQQAEDGKTELSLMHFAITNPGWQPPRESTAFLGFLKEQVQRDGAAASLAQGGLLPENALFTSIQSLQSESEPLSLIANVVAGSSCRGPPLPRDLQGSRHRAEVASALRSFSPLQPGQAPTGRAHSTMTGSGVDARTASSGSSVWEGQLQSLVLSEYASTEMSLHALYMHQLHKQQAQAEPERHVWHRRESDESGESAPDEGGEGARAPQSIPRSASYPCAAPRPGAPETTALHGGFQRRYGGITDPGTVPRVPSHFSRLPLGGWAEDGQSASRHPEPVPEEGSEDELPPQVHKV
	binds	FAAP20 (protein, UniProt Q6NZ36 1-180) MEAARRPRLGLSRRRPRPAGGPSGGRPWFLLGGDERERLWAELLRTVSPELILDHEVPSLPAFPGQEPRCGPEPTEVFTVGPKTFSWTPFPPDLWGPGRSYRLLHGAGGHLESPARSLPQRPAPDPCRAPRVEQQPSVEGAAALRSCPMCQKEFAPRLTQLDVDSHLAQCLAESTEDVTW
binds		PREB (protein, UniProt Q9HCU5 1-417) MGRRRAPELYRAPFPLYALQVDPSTGLLIAAGGGGAAKTGIKNGVHFLQLELINGRLSASLLHSHDTETRATMNLALAGDILAAGQDAHCQLLRFQAHQQQGNKAEKAGSKEQGPRQRKGAAPAEKKCGAETQHEGLELRVENLQAVQTDFSSDPLQKVVCFNHDNTLLATGGTDGYVRVWKVPSLEKVLEFKAHEGEIEDLALGPDGKLVTVGRDLKASVWQKDQLVTQLHWQENGPTFSSTPYRYQACRFGQVPDQPAGLRLFTVQIPHKRLRQPPPCYLTAWDGSNFLPLRTKSCGHEVVSCLDVSESGTFLGLGTVTGSVAIYIAFSLQCLYYVREAHGIVVTDVAFLPEKGRGPELLGSHETALFSVAVDSRCQLHLLPSRRSVPVWLLLLLCVGLIIVTILLLQSAFPGFL
binds	binds	FANCG (protein, UniProt O15287 1-622) MSRQTTSVGSSCLDLWREKNDRLVRQAKVAQNSGLTLRRQQLAQDALEGLRGLLHSLQGLPAAVPVLPLELTVTCNFIILRASLAQGFTEDQAQDIQRSLERVLETQEQQGPRLEQGLRELWDSVLRASCLLPELLSALHRLVGLQAALWLSADRLGDLALLLETLNGSQSGASKDLLLLLKTWSPPAEELDAPLTLQDAQGLKDVLLTAFAYRQGLQELITGNPDKALSSLHEAASGLCPRPVLVQVYTALGSCHRKMGNPQRALLYLVAALKEGSAWGPPLLEASRLYQQLGDTTAELESLELLVEALNVPCSSKAPQFLIEVELLLPPPDLASPLHCGTQSQTKHILASRCLQTGRAGDAAEHYLDLLALLLDSSEPRFSPPPSPPGPCMPEVFLEAAVALIQAGRAQDALTLCEELLSRTSSLLPKMSRLWEDARKGTKELPYCPLWVSATHLLQGQAWVQLGAQKVAISEFSRCLELLFRATPEEKEQGAAFNCEQGCKSDAALQQLRAAALISRGLEWVASGQDTKALQDFLLSVQMCPGNRDTYFHLLQTLKRLDRRDEATALWWRLEAQTKGSHEDALWSLPLYLESYLSWIRPSDRDAFLEEFRTSLPKSCDL

No constants are given. Whether binding was seen depends on the method and setting. In cells and extracts the contact can be indirect. A yes stands for co-enrichment or nearness to the bait. Other partners may have been found.
